{"source": "PubChem BioAssay AID504774 (Drosophila RNAi Screening Center, 2011)", "aim": "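Genes required for cells to withstand methyl methanesulphonate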 (primary screen)", "cells": "Drosophila Kc167 cells", "reagent": "long dsRNA against Drosophila genes, about 0.25 µg dsRNA per well", "duration": "about 6 days: 3 days knock-down, then 3 days with or without MMS", "treatment": "methyl methanesulphonate 0.004% (w/v) for 3 days after knock-down", "measurement": "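Viability in wells given MMS, read as ATP luminescence, normalised by quantiles plate by plate and averaged across replicates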", "scale": "mean viability with MMS: higher = more surviving cells after MMS", "note": "The deposit covers about 23,000 reagents; this is a random part of those with a known target gene and a result. 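Values are quantile-normalised luminescence on an arbitrary scale; higher means more cells surviving MMS.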 Names joined by + are all predicted targets of the reagent. Not all columns of the deposit are shown."}
{"target": "X11Lbeta", "amplicon": "DRSC18156", "mean viability with MMS": 3.42e6}
{"target": "X11Lbeta", "amplicon": "DRSC18158", "mean viability with MMS": 3.56e6}
{"target": "Pak3", "amplicon": "DRSC15017", "mean viability with MMS": 3.59e6}
{"target": "Scamp", "amplicon": "DRSC20286", "mean viability with MMS": 3.46e6}

Entries listed so far whose target name begins with X or x:
{"target": "X11Lbeta", "amplicon": "DRSC18156", "mean viability with MMS": 3.42e6}
{"target": "X11Lbeta", "amplicon": "DRSC18158", "mean viability with MMS": 3.56e6}

The listing continues:
{"target": "CG12134", "amplicon": "DRSC06109", "mean viability with MMS": 3.55e6}
{"target": "CG13215", "amplicon": "DRSC06337", "mean viability with MMS": 3.53e6}
{"target": "CG7017", "amplicon": "DRSC10762", "mean viability with MMS": 3.51e6}
{"target": "TBPH (TAR DNA-binding protein-43 homolog)", "amplicon": "DRSC04660", "mean viability with MMS": 3.42e6}
{"target": "Ir75c (Ionotropic receptor 75c)", "amplicon": "DRSC10190", "mean viability with MMS": 3.54e6}
{"target": "CG2061", "amplicon": "DRSC19348", "mean viability with MMS": 3.88e6}
{"target": "CG34326 (retired record)", "amplicon": "DRSC19165", "mean viability with MMS": 3.60e6}
{"target": "CG2006 + Spase12", "amplicon": "DRSC14316", "mean viability with MMS": 3.71e6}
{"target": "Pka-C2 (Protein kinase, cAMP-dependent, catalytic subunit 2)", "amplicon": "DRSC16790", "mean viability with MMS": 3.45e6}
{"target": "Pka-C2 (Protein kinase, cAMP-dependent, catalytic subunit 2)", "amplicon": "DRSC23310", "mean viability with MMS": 3.79e6}
